# According to PubChem BioAssay AID2685 (National Center for Advancing Translational Sciences (NCATS), 2010):
# The other results are listed elsewhere or left out. Further columns of the screen follow, without active or inactive calls. Compounds called inactive in the main read-out are mostly missing here. Words in brackets tell the shape of the fitted curve; partial curves, single points and poor fits give uncertain potencies.
# Assay: qHTS Assay for Lipid Storage Modulators in Drosophila S3 Cells;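 on cell number change: cells counted by Cell Tracker Red CMTPX staining in the red channel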
# Conditions: BODIPY lipid droplet fluorescence, 18-24 h; for cell number change: measured here: cell count max response, cells fed with added oleic acid
# Procedure, shortened: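 Drosophila S3 cells loaded with oleic acid (400 uM, as added) and compounds at several concentrations; lipid droplets imaged by 488-nm laser-scanning cytometry, 500–530 nm intensity and object ratio to cell channel. Percent activity normalized to 20 uM Triacsin C.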
# [1] = measured here: cell number channel AC50, cells fed with added oleic acid
# [2] = measured here: lipid fluorescence (Fed channel) AC50, cells fed with added oleic acid
SMILES,cell number change [%],AC50 [1],AC50 [2]
S=C(Nc1ccc2snnc2c1)N1CCN(c2ccccn2)CC1,91,"0.366 µM [rising, full curve]","0.461 µM [rising, full curve]"
O=C(Nc1ccccc1)c1ccc(NCC2CCCO2)c([N+](=O)[O-])c1 (centres undefined),1.08,,"6.51 µM [falling, full curve]"
O=C(O)C1=C[C@H](c2ccc(F)cc2)C[C@H](OCCCCO)O1,0.637,,"6.51 µM [rising, single point]"
N#CC(C(=O)NC1CCCCC1)c1nc2ccccc2nc1N1CCN(c2ccc(F)cc2)CC1 (centres undefined),37.1,"0.206 µM [rising, full curve]","0.00461 µM [rising, full curve, poor fit]"
COc1ccc(N2CCN(S(=O)(=O)c3c(C)[nH]c(C)c3C(=O)N3CCCC3)CC2)cc1,-15.6,,
COc1ccc(O)c(/C=N/NC(=O)c2cc(=O)[nH]c3ccccc23)c1,5.55,,
Cc1cccc(C(=O)Nc2cccnc2Cl)c1,16.2,,
Cc1ccc(C)c(-n2c(Cc3cc(=O)[nH]c(=O)[nH]3)nnc2SC(C)C)c1,-13.7,,
CCN(CC)C(=O)Cn1cc(C(=O)C(=O)N2CCN(Cc3ccccc3)CC2)c2ccccc21,,,"5.8 µM [rising, single point]"
CCC(=O)C1CCCN(C(=O)c2ccc(OC3CCN(C(=O)c4cccnc4)CC3)cc2)C1 (centres undefined),-29.2,,
COc1cc2nc(SCC(=O)c3ccc(Br)cc3)n3nc(C)nc3c2cc1OC,-32.6,"18.4 µM [falling, single point]","29.1 µM [falling, single point]"
O=C(OCCOc1ccccc1Cl)c1ccc(-n2cnnn2)cc1,16.9,"2.31 µM [rising, single point]",
O=C(N/N=C\c1ccc(Cl)cc1)C1=NOC2COC3(CCN(c4ccc([N+](=O)[O-])cc4)CC3)OCC12 (centres undefined),,,"20.6 µM [falling, partial curve, poor fit]"
CNC(=O)c1cccc(NC(=O)C(C)c2ccc3cc(OC)ccc3c2)c1 (centres undefined),-18.1,,
N#Cc1c(-c2ccccc2)nc(-c2ccccc2)[nH]c1=O,136,"14.6 µM [rising, partial curve]",
CCCOc1ccc2oc(=O)c3c(c2c1)CCCN3C(=O)CN1CCCC(C(=O)OCC)C1 (centres undefined),-25.8,,"4.61 µM [falling, partial curve, poor fit]"
C#CCOCCOCCOCCNc1nc(N2CCN(C(=O)CCCCCCCCCCNC(=O)[C@H](CCCCN)n3cc(CCO)nn3)CC2)nc(N2CCN(C(=O)CCCCCCCCCCNC(=O)[C@H](CCCCN)n3cc(CCO)nn3)CC2)n1,-7.13,"0.103 µM [falling, full curve, poor fit]","0.092 µM [falling, full curve, poor fit]"
COc1ccc(CNC(=O)CN(CC2CCCO2)C(=O)CNS(=O)(=O)c2ccc(C)cc2)cc1 (centres undefined),34,"0.58 µM [rising, full curve, poor fit]",
O=C(N/N=C/c1cccc2cccnc12)c1ccccc1O,-22.1,,"0.731 µM [falling, full curve]"
COC(=O)CN1C(=O)C(C)(C)Oc2ccc(C(=O)NC3CCCC3)cc21,-2.7,,"29.1 µM [rising, single point]"

# 2 records picked at random from the list so far:
SMILES,cell number change [%],AC50 [1],AC50 [2]
CCC(=O)C1CCCN(C(=O)c2ccc(OC3CCN(C(=O)c4cccnc4)CC3)cc2)C1 (centres undefined),-29.2,,
N#CC(C(=O)NC1CCCCC1)c1nc2ccccc2nc1N1CCN(c2ccc(F)cc2)CC1 (centres undefined),37.1,"0.206 µM [rising, full curve]","0.00461 µM [rising, full curve, poor fit]"

# (next part)

SMILES,cell number change [%],AC50 [1],AC50 [2]
COC(=O)Oc1ccc(/C=N/NC(=O)CSCc2ccccc2Br)cc1OC,14.1,,"3.26 µM [rising, partial curve]"
O=C(O)C1C2CCC(C2)C1C(=O)NCCc1ccc(F)cc1 (centres undefined),3.97,,"3.66 µM [rising, full curve]"
CCCCC(=O)Nc1ccc(NC(=S)NC(=O)CC)cc1OC,17.2,,"29.1 µM [rising, single point]"
Cc1csc(SCC(=O)Nc2nc(-c3ccccc3)cs2)n1,,"0.13 µM [rising, full curve, poor fit]",
COc1ccc(CC2(C)OC(c3ccc(Cl)cc3)=NN2C(C)=O)cc1 (centres undefined),-4.03,,
COc1cccc(CN2C(=O)c3ccccc3C2C(=O)NCC2CCCO2)c1 (centres undefined),77.5,"18.4 µM [rising, partial curve]","29.1 µM [rising, single point]"
O=C(COC(=O)c1cccc(S(=O)(=O)N2CCCCC2)c1)NC1CCCCC1,-14.4,,"0.92 µM [falling, full curve]"
COc1ccc(CC(=O)OCC(=O)c2ccc[nH]2)cc1,-14.8,,"6.51 µM [rising, single point]"
O=C(CCCn1c(=O)[nH]c2ccsc2c1=O)N1CCCCC1,,,"18.4 µM [falling, partial curve]"
Cc1ccc(C(=O)CCC(=O)Nc2ccc(Cl)c(S(=O)(=O)Nc3cccc(Cl)c3)c2)cc1,14.3,,
CCC1CCCCN1S(=O)(=O)c1ccc(NC(=O)c2ccncc2)cc1 (centres undefined),-43.4,"4.61 µM [falling, single point]",
CC(C)Oc1ccc(/C(O)=C2/C(=O)C(=O)N(CCN(C)C)C2c2ccco2)cc1 (centres undefined),-16.4,,"3.66 µM [falling, partial curve]"
Cc1ccc(S(=O)(=O)N2CCC(C(=O)NC3CCCCC3C)CC2)cc1 (centres undefined),-4.7,,
CCc1ccc(Nc2ccc(S(=O)(=O)N3CCOCC3)cc2[N+](=O)[O-])cc1,-40.1,"29.1 µM [falling, single point]","18.4 µM [falling, single point]"
O=C(NCCn1cccn1)c1ccc(OC2CCN(C(=O)C3CC3)CC2)cc1,8,,"6.51 µM [falling, single point]"
COc1ccc(OC)c(NC(=O)c2ccc(N3C(=O)C4CC=C(C)CC4C3=O)cc2)c1 (centres undefined),6.31,,"29.1 µM [rising, single point]"
Cc1c(NC(=O)c2cc(-c3ccc(O)cc3)on2)c(=O)n(-c2ccccc2)n1C,-1.28,,
CCn1c(=O)c(C(=O)NCCNCCO)c(O)c2ccccc21,-3.07,,"2.31 µM [rising, partial curve]"
COc1ccc(C(=O)OCC(=O)NC(C)(C)C)cc1[N+](=O)[O-],9.56,,
